Measurements reported in PubChem BioAssay AID504791 (Drosophila RNAi Screening Center, 2011)
The deposit covers about 23,000 reagents; shown is a random part of those with a known target gene and a result. In the full data, 199 (0.86%) were called active. 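Plate-scaled ratios behind the calls are not deposited; printed light signals are raw; many rows marked increased or decreased are still called inactive.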 A number with no mark means an inactive call. Reagents against one gene are numbered here. A plus sign joins genes that one reagent is predicted to hit. No sequences are given here. The record does not give: the direction of the score.

- Screen: 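Factors in Argonaute-based small RNA production and activity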 (primary screen)
- Cells: Drosophila S2-derived reporter cells
- Reagents: long dsRNA against Drosophila genes, about 150-250 ng dsRNA per well (siRNA assay); about 80-120 ng (miRNA assay)
- Duration: about 5 days (siRNA assay); about 4 days (miRNA assay)
- Conditions: copper sulfate induction of reporters: 25 µM (siRNA assay); 200 mM stated (miRNA assay), 1-2 days before reading
- Measurement: 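Per-well ratio of Renilla over firefly light, expressed relative to that plate's average ratio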
- Active means: 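First-pass picks had plate-scaled ratios over 1.5 for the siRNA assay, over 1.6 for the miRNA assay, or under 0.6; two distinct dsRNAs had to score alike on retest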

stable siRNA reporter change,miRNA reporter change,"stable assay Renilla, run 1 (luminescence)","stable assay firefly, run 1 (luminescence)",Target gene,reagent no.
,,6126,3.82e5,CG17570,1
,,6830,4.05e5,CG17570,2
,,5655,2.93e5,RhoGAP54D,1
,,5172,3.79e5,CG32726,1
,,6471,2.45e5,Eip75B,1
,,3527,2.54e5,Eip75B,2
,,5727,3.43e5,png,1
,,7788,3.53e5,eEF1alpha2,1
,,6248,4.55e5,eEF1alpha2,2
,,6091,3.01e5,spaw,1
,,7483,3.76e5,CG8319,1
,,7402,4.18e5,Naam,1
,,6543,3.15e5,CG14464,1
,,6772,4.28e5,Parp1,1
,,6338,4.01e5,Parp1,2
,,6796,3.54e5,Parp1,3
,,6267,3.82e5,PH4alphaNE2,1
,,8694,5.27e5,CG32267,1
,,3055,3.53e5,CG4000,1
,,8916,4.49e5,CG4000,2
,,10969,3.51e5,CG10252,1
,,8274,3.84e5,CG13407,1
,,4587,4.67e5,Pex10,1
,,8758,5.85e5,Pex10,2
,,22321,1.57e6,noc,1
,,10659,4.01e5,Cth,1
,,6742,4.05e5,GstD9,1
,,5912,3.24e5,SmydA-8,1
,,9588,5.82e5,SmydA-8,2
,,9045,5.75e5,SmydA-8,3
reporter ratio raised past the hit cutoff,,17721,3.07e5,Dad,1
,,5599,3.93e5,ng2,1
,,10271,3.00e5,ArfGAP3,1
,,9646,5.34e5,CarT,1
,,5966,1.96e5,EloA,1
,,8923,4.69e5,CG33189,1
,,4511,5.25e5,Gr36a,1
,,19074,1.87e6,grp + CG31782 (retired record),1
,,4008,1.99e5,CG4328,1
,,5908,3.61e5,CG4328,2
,,6727,3.81e5,Sgs3,1
,,7784,3.29e5,Acsx2,1
,,6270,3.73e5,CG13438,1
,,8046,3.22e5,Scsalpha2,1
,,6363,4.23e5,TwdlT,1
,,8902,4.29e5,TwdlT,2
,,6835,3.39e5,CAH8,1
,,7975,3.99e5,CG13667,1
,,6376,3.41e5,CG43894,1
,reporter ratio lowered past the hit cutoff,5535,4.21e5,PolQ,1
,,6547,3.15e5,CG44774,1
,,7454,4.82e5,mRpL48,1
,,4263,2.83e5,Cyp4s3,1
,,8477,5.21e5,Cyp4s3,2
,,6188,3.44e5,CG13926,1
,,7334,2.85e5,CG7714,1
,,98118,2.58e5,CG8475,1
,,4659,4.75e5,Oamb,1
,,6468,3.66e5,Oamb,2
,,7442,3.88e5,Oamb,3
,,28189,2.38e5,Pkg21D,1
,,6591,3.36e5,beta4GalT7,1
,,6808,4.01e5,CG13299,1
,,8323,5.05e5,CG7295,1
,reporter ratio lowered past the hit cutoff,6550,2.97e5,aop,1
,,2875,2.30e5,aop,2
,,6742,3.08e5,Tm2,1
,,3384,3.46e5,CG14177 (retired record),1
,,8359,4.14e5,CG3655,1
,,6519,3.40e5,CG3655,2
,,6264,3.64e5,CG3655,3
,,5327,4.95e5,CG3655,4
,,6750,3.82e5,CG33784,1
,,11761,4.40e5,CG5687,1
,,6546,2.98e5,CR15821,1
,,7438,3.78e5,CG10226,1
,,3791,3.82e5,CG31206,1
,,9719,5.97e5,Sin3A,1
,,6347,3.31e5,CG3999,1
,,7398,3.52e5,CG3857,1
,,8019,3.37e5,btz,1
reporter ratio lowered past the hit cutoff,,4795,4.12e5,CG10510,1
,,7338,4.62e5,vlc,1

Entries above whose target name starts with O or o (3):
stable siRNA reporter change,miRNA reporter change,"stable assay Renilla, run 1 (luminescence)","stable assay firefly, run 1 (luminescence)",Target gene,reagent no.
,,4659,4.75e5,Oamb,1
,,6468,3.66e5,Oamb,2
,,7442,3.88e5,Oamb,3
